Experimental data published in doi:10.1101/2020.05.08.084889 (bioRxiv, 2020).
Where two headings read alike, the source gives them in different places. Results are given in words; binding and its absence hold for the method and conditions named. Some results given as binding are weak or reduced against the parent protein; the word gives no strength. For some assays here: Where a sequence is shown, tags or fusion partners need not be part of it. Blank lines part the entries; values can stand above or below the binder they belong to.

The chains behind the UniProt entries cited, without tags or fusion partners. Where a name states a change or a piece, a line headed by the entry shows the natural chain unless it says otherwise.
UniProt P17301: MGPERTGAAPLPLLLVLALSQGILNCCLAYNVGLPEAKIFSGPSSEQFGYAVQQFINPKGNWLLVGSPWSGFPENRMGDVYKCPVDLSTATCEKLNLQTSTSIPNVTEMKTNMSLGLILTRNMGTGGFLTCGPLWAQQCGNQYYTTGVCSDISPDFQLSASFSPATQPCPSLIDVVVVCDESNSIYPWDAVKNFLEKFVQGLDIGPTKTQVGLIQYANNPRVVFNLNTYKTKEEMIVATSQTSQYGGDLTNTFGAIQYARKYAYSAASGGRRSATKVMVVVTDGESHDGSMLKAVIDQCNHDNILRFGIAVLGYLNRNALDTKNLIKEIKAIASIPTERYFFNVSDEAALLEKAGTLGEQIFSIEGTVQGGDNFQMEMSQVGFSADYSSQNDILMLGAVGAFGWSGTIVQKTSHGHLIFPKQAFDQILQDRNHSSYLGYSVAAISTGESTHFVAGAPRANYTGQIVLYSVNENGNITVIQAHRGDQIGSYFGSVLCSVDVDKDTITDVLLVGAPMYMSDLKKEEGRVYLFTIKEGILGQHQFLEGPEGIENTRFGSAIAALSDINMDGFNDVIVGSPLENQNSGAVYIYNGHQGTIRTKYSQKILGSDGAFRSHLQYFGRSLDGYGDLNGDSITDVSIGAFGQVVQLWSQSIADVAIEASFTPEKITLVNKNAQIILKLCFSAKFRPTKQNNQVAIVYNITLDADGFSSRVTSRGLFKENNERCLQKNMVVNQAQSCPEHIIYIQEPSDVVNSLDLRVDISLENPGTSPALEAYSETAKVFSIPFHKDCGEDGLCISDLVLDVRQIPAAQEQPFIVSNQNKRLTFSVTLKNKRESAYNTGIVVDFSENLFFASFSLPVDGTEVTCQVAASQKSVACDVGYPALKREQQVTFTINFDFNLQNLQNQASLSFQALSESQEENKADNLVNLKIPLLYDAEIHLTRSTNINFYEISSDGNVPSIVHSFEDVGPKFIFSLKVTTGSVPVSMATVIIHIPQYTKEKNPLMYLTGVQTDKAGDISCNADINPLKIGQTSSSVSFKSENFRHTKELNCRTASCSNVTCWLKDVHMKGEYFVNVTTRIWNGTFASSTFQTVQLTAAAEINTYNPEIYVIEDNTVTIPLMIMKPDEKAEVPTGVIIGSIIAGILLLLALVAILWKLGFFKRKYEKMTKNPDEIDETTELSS
UniProt P05556: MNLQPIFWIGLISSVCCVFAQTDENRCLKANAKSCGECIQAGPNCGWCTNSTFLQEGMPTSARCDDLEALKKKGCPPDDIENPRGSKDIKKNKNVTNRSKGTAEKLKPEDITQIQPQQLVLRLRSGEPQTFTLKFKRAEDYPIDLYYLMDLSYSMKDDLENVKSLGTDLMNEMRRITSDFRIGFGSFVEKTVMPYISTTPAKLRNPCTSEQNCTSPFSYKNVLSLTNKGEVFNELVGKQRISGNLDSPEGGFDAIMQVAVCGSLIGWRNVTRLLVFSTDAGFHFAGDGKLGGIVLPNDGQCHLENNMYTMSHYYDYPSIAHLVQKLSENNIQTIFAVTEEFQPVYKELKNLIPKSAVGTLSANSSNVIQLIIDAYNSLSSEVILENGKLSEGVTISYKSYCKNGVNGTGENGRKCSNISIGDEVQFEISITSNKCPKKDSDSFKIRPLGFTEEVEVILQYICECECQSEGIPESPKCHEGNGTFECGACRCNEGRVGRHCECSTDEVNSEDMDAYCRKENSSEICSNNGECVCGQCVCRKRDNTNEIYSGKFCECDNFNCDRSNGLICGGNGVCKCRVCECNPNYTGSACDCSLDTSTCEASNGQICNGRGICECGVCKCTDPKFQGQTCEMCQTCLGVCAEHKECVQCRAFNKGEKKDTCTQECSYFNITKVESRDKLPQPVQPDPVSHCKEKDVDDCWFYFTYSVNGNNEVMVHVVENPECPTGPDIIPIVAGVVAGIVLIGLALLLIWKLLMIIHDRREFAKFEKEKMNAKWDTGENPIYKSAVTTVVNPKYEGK

What was measured:
Assay in all cases: single molecule AFM force measurement
[1] = target: T1, Recombinant human CAR-FC (human), P78310; details: remark: other sources report otherwise
T1 chain: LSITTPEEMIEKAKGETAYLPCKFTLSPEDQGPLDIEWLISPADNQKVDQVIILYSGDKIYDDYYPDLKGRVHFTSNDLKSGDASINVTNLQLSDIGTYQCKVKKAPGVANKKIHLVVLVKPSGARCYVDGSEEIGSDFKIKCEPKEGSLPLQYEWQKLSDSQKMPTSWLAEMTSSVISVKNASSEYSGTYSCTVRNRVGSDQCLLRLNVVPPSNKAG

[2] = target: T2, Desmocollin-3 complete extracellular region, biotinylated (Dsc3-ATH) (human) (UniProt Q14574)
T2 sequence (chain, biotin on the Avi-tag (BirA enzyme)): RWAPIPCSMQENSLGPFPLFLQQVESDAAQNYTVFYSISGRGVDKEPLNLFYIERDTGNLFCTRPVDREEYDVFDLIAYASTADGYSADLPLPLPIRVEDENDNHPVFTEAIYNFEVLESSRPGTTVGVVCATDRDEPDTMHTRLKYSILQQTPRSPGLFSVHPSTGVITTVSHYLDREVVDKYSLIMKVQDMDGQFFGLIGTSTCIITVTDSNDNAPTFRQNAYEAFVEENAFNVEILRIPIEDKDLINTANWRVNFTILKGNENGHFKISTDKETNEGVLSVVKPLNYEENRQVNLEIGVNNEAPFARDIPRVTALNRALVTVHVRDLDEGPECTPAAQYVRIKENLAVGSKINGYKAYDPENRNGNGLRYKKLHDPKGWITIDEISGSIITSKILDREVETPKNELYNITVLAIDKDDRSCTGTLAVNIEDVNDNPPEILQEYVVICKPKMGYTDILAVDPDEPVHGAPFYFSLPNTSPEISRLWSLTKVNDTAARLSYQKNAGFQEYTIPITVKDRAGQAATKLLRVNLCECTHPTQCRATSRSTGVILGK

[3] = target: Human Integrin α2β1 heterodimer with human c-Jun and human c-Fos (human) (UniProt P17301+P05556)
[4] = target: E-cadherin complete extracellular region, biotinylated (Ecad-ATH) (UniProt F1PAA9)
[5] = target: T2, Desmocollin-3 complete extracellular region, biotinylated (Dsc3-ATH) (human); remark: listed apart in the source

binding [1]: binds
B1: Recombinant human CAR-FC, P78310 20-237 (Fc fusion)
chain: T1 chain

binding [2]: binds | binding [3]: binds | binding [4]: binds | binding [5]: binds
B2: E-cadherin complete extracellular region, biotinylated (Ecad-ATH) (domain or fragment)
chain: DWVIPPISCPENEKGPFPKNLVQIKSNRDKEIKVFYSITGQGADAPPVGVFIIERETGWLKVTEPLDREQIAKYILYSHAVSSNGNAVEDPMEIVITVTDQNDNKPEFTQAVFQGSVTEGALPGTSVMQVTATDADDDVNTYNAAIAYSILTQDPLLPSSMMFTINKDTGVISVLTTGLDREGVPMYTLVVQAADLQGEGLTTTATAVITVTDINDNPPIFNPTTYQGRVPENKANVEIAVLKVTDADVPDTPAWRAVYTILNNNNDQFVVTTDPVTNDGILKTTKGLDFEDKQQYVLYVTVVNVTPFEVILSTSTATVTVDVEDVNEAPIFIPCPKVVSIPEDFGVGQEITSYTAEDPDTYMEQRITYRIWRDAAGWLEVNPESGAIFTRAELDREDFEHVKNSTYEALIIAIDNGSPVATGTGTLLLVLSDVNDNGPIPEPRNMDFCQKNPQPHVINIIDPDLPPNTSPFTAELTHGASVNWTIEYNDPARESLILKPKKTLELGDYKINLKLTDNQNKDQVTTLDVFVCDCEGVVNSCKRTAPYAEAGLQVPA
modifications: biotin on the Avi-tag (BirA enzyme)
